One assay concerns HSkMC. Description: cytotoxicity call (relative viability < 0.9). To be noted: 10 µM.
The next assay deals with HepG2. The experiment in a line: cytotoxicity call (relative viability < 0.9). To be noted: 10 µM.

Cytotoxicity call data for four compounds are collected here from the antibiotic and cytotoxicity screens of Wong et al. (2023).

Structures are written as SMILES. The hits were mostly taken out for another list; the other results follow.

As for `O=C(O)C1=C[C@@H](O)[C@H](O)[C@H](O)C1`, the cytotoxicity call in the assay with HSkMC and with HepG2 was “inactive” throughout.
With `O=C(c1ccccc1)c1ccccc1`, the cytotoxicity call in the assay on HSkMC (human skeletal muscle cells) and in the assay on HepG2 was “inactive” throughout.
Consider `O=C(O)C1=C[C@@H](O)[C@@H](O)[C@H](O)C1`, for which the cytotoxicity call in the assay with HSkMC and in the assay on HepG2 was “inactive” throughout.
Consider `O=C(O)C1=CC(O)C(O)C(O)C1` (stereo not drawn), for which the cytotoxicity call in the assay with HSkMC and in the assay on HepG2 was “inactive” each time.
